Measurements as given in PubChem BioAssay AID595 (National Center for Advancing Translational Sciences (NCATS), 2007).
The campaign covered roughly 71,000 compounds. About 310 (0.44%) were called active. Inconclusive means that the source gave no clear call. Such entries were picked first, then a sample of the others. The call rests on the fitted dose curve; in most records, active means well fitted curve in either direction with a large enough effect; inconclusive means small, poorly fitted or top-dose-only effect, or another doubt; inactive means flat fitted curve, though single readings scatter. A potency beside an inconclusive call is a rough fit, not a confirmed value.

tested on: Hsp90 C-terminal peptide / TPR2A (Hop) interaction, human; assay: qHTS Assay for Disrupters of an Hsp90 Co-Chaperone Interaction; conditions: AlphaScreen TPR2A-His6 binding biotin-Hsp90 C-terminal peptide; activity change, negative = inhibition: at 57 µM (top of the series) unless noted
On the % scale 0 is the no-effect control and ±100 the full control effect; potency means the concentration at half of the fitted maximal effect.

Structure (SMILES) | activity change, negative = inhibition | Potency
Cc1ccc(-c2c(C#N)c(N)nc3c2CCCCCC3)o1 | inconclusive: 56.8% | –
C=C(C)COc1ccc2oc(C)c(C(=O)OCCOC)c2c1 | – | inconclusive: 31.6 µM [activator, single point]
O=C1c2ccccc2C(O)N1Cc1ccc2c(c1)OCO2 (centres undefined) | inactive: -0.876% [at 2.3 µM] | –
COC1CCCCC1Nc1cccc(SC)c1 (centres undefined) | inconclusive: 54% | –
CSc1ccc(C2C(C#N)=C(N)Oc3c2ccc(=O)c2c(C)oc(C)c32)cc1 (centres undefined) | – | inconclusive: 31.6 µM [inhibitor, partial curve]
CNc1sc(C(=O)c2cccs2)c(N)c1-c1nc2ccccc2s1 | – | inconclusive: 15.8 µM [inhibitor, partial curve]
CSc1ccc(S(=O)(=O)Nc2cccc(F)c2)cc1 | inactive | –
O=C(NCCCN1CCOCC1)[C@@H]1CSC2c3ccccc3C(=O)N21 (some centres undefined) | inconclusive: 45% | –
c1cc(-c2nc3cc(Oc4ccc5oc(-c6ccncc6)nc5c4)ccc3o2)ccn1 | inconclusive: 46.8% | –
COc1ccc(C2C3=C(N=C4SCC(=O)N42)c2ccccc2CC3)cc1OC (centres undefined) | inactive | –
O=C(c1ccc2c(c1)OCO2)N1CCN(c2ccccc2)CC1 | inactive | –
CC1CCCC(C)N1C(=O)c1cc(-c2ccc(Cl)c(Cl)c2)on1 (centres undefined) | – | inconclusive: 39.8 µM [activator, single point]
Cc1ccccc1-c1nnc(SCc2ccccc2F)o1 | – | inconclusive: 39.8 µM [activator, single point]
CC(C)(C)C(=O)NC(=C(Cl)Cl)P(=O)(O)O | inconclusive: 53% | –
CN1CCN(c2ccc(Cl)cc2NC(=O)c2ccc(S(=O)(=O)N3CCCCCC3)cc2)CC1 | inconclusive: 33.1% | –
COCCn1c(=O)c(-c2cccs2)nc2cnc(Oc3ccc(OC)cc3)nc21 | inactive | –
C=CCN(C(=O)CNC(=O)c1ccco1)C(C(=O)NC1CCCCC1)c1ccc(F)cc1 (centres undefined) | inconclusive: 49.1% | –
CN1C(=O)CC(N2CCN(c3ccccn3)CC2)C1=O (centres undefined) | inconclusive: 44% | –
Cc1ccc(C2C(C#N)=C(N)Oc3c2oc(CO)cc3=O)o1 (centres undefined) | inactive | –
CCSc1nnc2c(n1)OC(C)(C)Nc1ccccc1-2 | inconclusive: 42.3% | –
Cc1cccc(N(C)C(=S)Oc2ccc3ccccc3c2)c1 | – | inconclusive: 15.8 µM [activator, single point]
Cc1cc(NC(=O)CSc2nnc(-c3ccoc3C)o2)no1 | – | inconclusive: 31.6 µM [inhibitor, partial curve]
CCCCNN | inactive: -3.43% [at 11 µM] | –
Nc1nc2ccccc2n1/N=C/c1ccc(-c2ccccc2)o1 | – | inconclusive: 31.6 µM [inhibitor, single point]

Record cards (already shown). Order of values: activity change, negative = inhibition | Potency
COc1ccc(C2C3=C(N=C4SCC(=O)N42)c2ccccc2CC3)cc1OC (centres undefined) reads inactive | –
CC(C)(C)C(=O)NC(=C(Cl)Cl)P(=O)(O)O reads inconclusive: 53% | –
